Out of some 400,000 compounds screened, about 13,000 (3.2%) were called active. The shares of active, inactive and inconclusive entries below differ from those in the screen. Calls come from the whole dose curve; as a rule, active = well fitted cell-killing curve with a large enough effect; inconclusive = small, poorly fitted or top-dose-only effect, or effect the other way; inactive = flat fitted curve, though single readings scatter. Where the call is inconclusive, the potency comes from a doubtful curve fit. The source holds several records for some structures; these can differ, active in one and inactive in another.
Experiment: qHTS assay for MDR1-selective chemotherapeutics: Primary screen using the drug-selected MDR subline cells KB-V1; note: nearly all actives have a fitted effect of over 60% in size
Conditions: KB-V1 MDR cells viability, CellTiter-Glo, 72 h; activity change, negative = cytotoxicity: at 46.1 µM (top of the series)
Method in brief: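 Following 72 h at 37 degrees C with compound, KB-V1 cell viability was read by CellTiter-Glo luminescence, medium being phenol-red-free DMEM plus 10% FBS; concentration-response parameters came from normalized, curve-fitted qHTS data.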
% is set by controls: 0 for no effect and ±100 for the full control effect; potency is the fitted concentration of half-maximal effect.

Row | SMILES | Potency | activity change, negative = cytotoxicity
1 | COc1ccc(Nc2ncnc3sccc23)cc1 | inconclusive: 25.9 µM [cytotoxic, single point] | –
2 | COc1c2ccoc2c(OC)c2oc(=O)ccc12 | inconclusive: 2.31 µM [rising, full curve, poor fit] | –
3 | O=C(O)c1ccc(Cl)c(NC(=O)C2CCN(S(=O)(=O)c3ccc4c(c3)OCCO4)CC2)c1 | inconclusive: 2.59 µM [rising, partial curve, poor fit] | –
4 | COc1ccc(F)cc1S(=O)(=O)N1CCN(c2ccccn2)CC1 | inconclusive: 29.1 µM [cytotoxic, single point] | –
5 | CCOC(=O)c1noc2nc(C)n(Cc3ccc([N+](=O)[O-])cc3)c(=O)c12 | inconclusive: 29.1 µM [rising, single point] | –
6 | CC(=O)N1CCN(c2ccc(NC(=O)c3ccc(N4CCCC4)c([N+](=O)[O-])c3)cc2Cl)CC1 | inconclusive: 7.31 µM [cytotoxic, partial curve, poor fit] | –
7 | COc1ccccc1CN1C(=O)c2ccccc2C1C(=O)NC1CCC(C)CC1 (stereo not given) | inconclusive: 5.8 µM [cytotoxic, partial curve] | –
8 | Cc1ccccc1CN1CCCN(CC(=O)Nc2ccc3c(c2)OCCO3)S1(=O)=O | – | inactive: -7.7%
9 | CCCCOc1ccc(-c2nnn(CC(=O)NCc3ccco3)n2)cc1 | active: 4.11 µM | –
10 | CCOc1ccc(NC(=O)c2c(NC(=O)c3cccs3)sc3c2CCC(C(C)(C)C)C3)cc1 (stereo not given) | – | inactive: 17.5%
11 | COc1ccccc1NC(=O)c1cc(S(=O)(=O)NCCC2=CCCCC2)ccc1F | – | inactive: 3.39%
12 | CCn1c(=O)cc(SCC(=O)N2CCN(c3ccccc3F)CC2)c2ccccc21 | active: 23.1 µM | –
13 | Cc1onc(-c2ccccc2Cl)c1C(=O)N1CCN(c2cccc(Cl)c2)CC1 | active: 1.3 µM | –
14 | O=C1N[C@H](Cc2ccccc2)COC(=O)[C@H](Cc2ccc(F)cc2)C/C=C\C[C@@H]1CC(=O)N(CCO)Cc1ccccc1 | – | inactive: -3.73%
15 | O=C(COc1ccccc1Cl)NCCNC(=O)c1cccnc1 | – | inactive: 22.9%
16 | O=C1OCCC1N1C(=O)c2ccccc2S1(=O)=O (stereo not given) | inconclusive: 18.4 µM [rising, partial curve, poor fit] | –
17 | Cc1nc2ccccc2c(C)c1C(=O)c1ccccc1 | inconclusive: 20.6 µM [cytotoxic, single point] | –
18 | CC(Sc1nnc2c(n1)[nH]c1ccccc12)C(=O)NC1CCCCC1 (stereo not given) | inconclusive: 18.4 µM [cytotoxic, partial curve, poor fit] | –
19 | Cc1c(NC(=O)C(C)OC(=O)c2cc(Cl)ccc2O)c(=O)n(-c2ccccc2)n1C (stereo not given) | – | inactive: 2.65%
20 | CN(C(=O)c1cc2nc(-c3ccco3)cc(C(F)(F)F)n2n1)C1CCCCC1 | inconclusive: 9.2 µM [cytotoxic, partial curve] | –
21 | CN(C)C(=O)COC(=O)c1cccc(S(=O)(=O)Nc2ccc(OCc3ccccc3)cc2)c1 | – | inactive: -16.3%
22 | COc1ccc(/C=C/c2ccc3ccccc3n2)cc1OC | – | inactive: -2.17%
23 | CCC1CCCCN1C(=O)COC(=O)c1cc(C)nc2ccccc12 (stereo not given) | – | inconclusive: -14%

Exported as comma-separated lines: 2 of the compounds above.
Row,SMILES,Potency,"activity change, negative = cytotoxicity"
4,COc1ccc(F)cc1S(=O)(=O)N1CCN(c2ccccn2)CC1,"inconclusive: 29.1 µM [cytotoxic, single point]",–
14,O=C1N[C@H](Cc2ccccc2)COC(=O)[C@H](Cc2ccc(F)cc2)C/C=C\C[C@@H]1CC(=O)N(CCO)Cc1ccccc1,–,inactive: -3.73%

Some of the entries so far, with tabs.
Row	SMILES	Potency	activity change, negative = cytotoxicity
11	COc1ccccc1NC(=O)c1cc(S(=O)(=O)NCCC2=CCCCC2)ccc1F	–	inactive: 3.39%
13	Cc1onc(-c2ccccc2Cl)c1C(=O)N1CCN(c2cccc(Cl)c2)CC1	active: 1.3 µM	–

Next records:

Row | SMILES | Potency | activity change, negative = cytotoxicity
24 | Cc1ccccc1N1CCN(C2CCCN(C(=O)CSc3ccccn3)C2)CC1 (stereo not given) | inconclusive: 1.64 µM [cytotoxic, full curve] | –
25 | CS(=O)(=O)Nc1cccc(NC(=O)c2ccc(-c3ccc(F)c(F)c3)c3ccoc23)c1 | inconclusive: 11.6 µM [cytotoxic, partial curve, poor fit] | –
26 | C[C@]12CC[C@@H]3c4ccc(O)cc4CC[C@H]3[C@@H]1CC[C@@H]2OC(=O)CCC(=O)O | inconclusive: 18.4 µM [cytotoxic, single point] | –
27 | O/N=C/c1ccc(OCc2ccccc2)c(Cl)c1 | inconclusive: 18.4 µM [cytotoxic, partial curve, poor fit] | –
28 | O=C(NCCCn1ccnc1)c1c(F)cccc1F | inconclusive: 16.4 µM [rising, single point] | –
29 | Cn1c(=O)cc(OCC(=O)Nc2ccccn2)c2ccccc21 | – | inactive: 2.71%
30 | Cn1c(=O)c(C(=O)NNC(=O)c2cccc(Cl)c2)c(O)c2ccccc21 | inconclusive: 10.3 µM [cytotoxic, partial curve, poor fit] | –
31 | COc1cc2c(cc1CNC[C@H]1O[C@@H](n3cnc(C(N)=O)n3)[C@H](O)[C@@H]1O)OCO2 | inconclusive: 14.6 µM [rising, single point] | –
32 | CCn1c(C)cc(C=C2C(=O)c3ccccc3C2=O)c1C | – | inactive: -14.2%
33 | CCCOc1cccc(-c2nnc(NC(=O)c3ccco3)s2)c1 | inconclusive: 29.1 µM [cytotoxic, single point] | –
34 | CCC(C)(C)C1CCc2c(sc(NC(=O)c3ccccc3C(=O)O)c2C#N)C1 (stereo not given) | inconclusive: 29.1 µM [rising, single point] | –
35 | COCCN(C(=O)c1ccc2ccccc2c1)c1c(N)n(Cc2ccccc2)c(=O)[nH]c1=O | – | inactive: 1.38%
36 | N#Cc1cc2cc3c(cc2nc1SCC(=O)N1CCOCC1)OCCO3 | inconclusive: 14.6 µM [cytotoxic, partial curve] | –
37 | CCOC(=O)C1(CCOc2ccccc2)CCN(Cc2cc(OC)c(O)cc2Cl)CC1 | – | inactive: -24.4%
38 | O=C(CNC(=O)c1ccccc1)OCC(=O)c1c[nH]c2ccccc12 | inconclusive: 29.1 µM [rising, single point] | –
39 | COc1cccc(NC(=O)CN(C)C(=O)C(C)Sc2ccccc2)c1 (stereo not given) | inconclusive: 23.1 µM [cytotoxic, single point] | –
40 | COc1ccc(NC(=O)CN(C)C(C)C(=O)N2CCCCC2)cc1 (stereo not given) | active: 11.6 µM | –
41 | CCOC(=O)C(/C(C)=N/NC(=O)C1CC1c1ccccc1)C(C)C (stereo not given) | active: 16.4 µM | –
42 | O=C(Nc1ccc(F)cc1)c1ccc(CSc2ccccc2)o1 | inconclusive: 23.1 µM [cytotoxic, single point] | –
43 | Cc1c(CN2CCC(C)CC2)c(=O)n(-c2ccccc2)n1C | – | inactive: -7.43%
44 | Cn1c(-c2ccc(F)cc2)cnc1SCC(=O)N1CCCc2ccccc21 | inconclusive: 20.6 µM [cytotoxic, single point] | –
45 | COc1ccc(/C=C2\SC(=S)N(CCCC(=O)Nc3cc(C)on3)C2=O)cc1OC | – | inactive: -14.2%
